Laboratory results: article PMC12448072

Columns and labels:
[1] = target: T1, PILS6-GFP (PIN-LIKES 6, GFP-tagged) (A. thaliana) (UniProt Q9LZN2); assay: co-IP; stable A. thaliana transgenics expressing PILS6-GFP; α-GFP IP, immunoblot with GFP and HRD1 antibodies
T1 sequence: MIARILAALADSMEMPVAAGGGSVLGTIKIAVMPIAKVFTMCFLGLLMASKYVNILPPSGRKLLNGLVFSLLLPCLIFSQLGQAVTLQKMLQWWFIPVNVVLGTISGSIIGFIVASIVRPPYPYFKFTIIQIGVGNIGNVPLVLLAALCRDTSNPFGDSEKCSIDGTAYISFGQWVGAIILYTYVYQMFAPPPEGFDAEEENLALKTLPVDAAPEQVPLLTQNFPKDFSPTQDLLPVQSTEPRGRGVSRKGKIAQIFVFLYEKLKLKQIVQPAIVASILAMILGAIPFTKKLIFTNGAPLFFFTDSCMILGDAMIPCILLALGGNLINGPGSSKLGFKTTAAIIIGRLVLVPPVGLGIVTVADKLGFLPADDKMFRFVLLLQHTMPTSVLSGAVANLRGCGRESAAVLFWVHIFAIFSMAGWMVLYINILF

PILS3-GFP (A. thaliana) = target: T2, PILS3-GFP (A. thaliana) (UniProt Q9C9K5); assay: co-IP; PILS3-GFP coexpressed with mScarlet-tagged ERAD components transiently in N. benthamiana; α-RFP or α-GFP IPs, immunoblot with RFP or GFP antibodies
T2 sequence: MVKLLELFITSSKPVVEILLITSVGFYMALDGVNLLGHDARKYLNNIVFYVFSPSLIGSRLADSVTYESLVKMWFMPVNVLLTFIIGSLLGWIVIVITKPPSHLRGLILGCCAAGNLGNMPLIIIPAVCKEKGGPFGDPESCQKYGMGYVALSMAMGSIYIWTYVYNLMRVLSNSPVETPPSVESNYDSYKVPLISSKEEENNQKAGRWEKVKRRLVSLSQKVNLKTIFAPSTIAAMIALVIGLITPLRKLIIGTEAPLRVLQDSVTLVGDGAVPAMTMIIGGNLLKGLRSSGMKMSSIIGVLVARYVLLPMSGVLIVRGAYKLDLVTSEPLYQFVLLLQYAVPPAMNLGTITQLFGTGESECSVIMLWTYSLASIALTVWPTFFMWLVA

Substance | binding [1] | binding (PILS3-GFP (A. thaliana))
HRD1 (endogenous HRD1A/B, as recognised by the HRD1 antibody) (A. thaliana (endogenous in A. thaliana)) | binds | –
PAWH2-mScarlet (A. thaliana) | – | binds
PAWH1-mScarlet (A. thaliana) | – | binds

No constants are given. Whether binding was seen depends on the method and setting. In cells and extracts the contact can be indirect. Binding calls can cover weak binding; strength is not graded here. Tags and fused reporters may be left off the sequences shown.
